This is one part of the list.

Sequences of proteins named here, by UniProt entry; tags and fusion partners are left off. A change or cut given only in a name is not applied to a line headed by its entry.
UniProt Q96T58, whole entry, looked up: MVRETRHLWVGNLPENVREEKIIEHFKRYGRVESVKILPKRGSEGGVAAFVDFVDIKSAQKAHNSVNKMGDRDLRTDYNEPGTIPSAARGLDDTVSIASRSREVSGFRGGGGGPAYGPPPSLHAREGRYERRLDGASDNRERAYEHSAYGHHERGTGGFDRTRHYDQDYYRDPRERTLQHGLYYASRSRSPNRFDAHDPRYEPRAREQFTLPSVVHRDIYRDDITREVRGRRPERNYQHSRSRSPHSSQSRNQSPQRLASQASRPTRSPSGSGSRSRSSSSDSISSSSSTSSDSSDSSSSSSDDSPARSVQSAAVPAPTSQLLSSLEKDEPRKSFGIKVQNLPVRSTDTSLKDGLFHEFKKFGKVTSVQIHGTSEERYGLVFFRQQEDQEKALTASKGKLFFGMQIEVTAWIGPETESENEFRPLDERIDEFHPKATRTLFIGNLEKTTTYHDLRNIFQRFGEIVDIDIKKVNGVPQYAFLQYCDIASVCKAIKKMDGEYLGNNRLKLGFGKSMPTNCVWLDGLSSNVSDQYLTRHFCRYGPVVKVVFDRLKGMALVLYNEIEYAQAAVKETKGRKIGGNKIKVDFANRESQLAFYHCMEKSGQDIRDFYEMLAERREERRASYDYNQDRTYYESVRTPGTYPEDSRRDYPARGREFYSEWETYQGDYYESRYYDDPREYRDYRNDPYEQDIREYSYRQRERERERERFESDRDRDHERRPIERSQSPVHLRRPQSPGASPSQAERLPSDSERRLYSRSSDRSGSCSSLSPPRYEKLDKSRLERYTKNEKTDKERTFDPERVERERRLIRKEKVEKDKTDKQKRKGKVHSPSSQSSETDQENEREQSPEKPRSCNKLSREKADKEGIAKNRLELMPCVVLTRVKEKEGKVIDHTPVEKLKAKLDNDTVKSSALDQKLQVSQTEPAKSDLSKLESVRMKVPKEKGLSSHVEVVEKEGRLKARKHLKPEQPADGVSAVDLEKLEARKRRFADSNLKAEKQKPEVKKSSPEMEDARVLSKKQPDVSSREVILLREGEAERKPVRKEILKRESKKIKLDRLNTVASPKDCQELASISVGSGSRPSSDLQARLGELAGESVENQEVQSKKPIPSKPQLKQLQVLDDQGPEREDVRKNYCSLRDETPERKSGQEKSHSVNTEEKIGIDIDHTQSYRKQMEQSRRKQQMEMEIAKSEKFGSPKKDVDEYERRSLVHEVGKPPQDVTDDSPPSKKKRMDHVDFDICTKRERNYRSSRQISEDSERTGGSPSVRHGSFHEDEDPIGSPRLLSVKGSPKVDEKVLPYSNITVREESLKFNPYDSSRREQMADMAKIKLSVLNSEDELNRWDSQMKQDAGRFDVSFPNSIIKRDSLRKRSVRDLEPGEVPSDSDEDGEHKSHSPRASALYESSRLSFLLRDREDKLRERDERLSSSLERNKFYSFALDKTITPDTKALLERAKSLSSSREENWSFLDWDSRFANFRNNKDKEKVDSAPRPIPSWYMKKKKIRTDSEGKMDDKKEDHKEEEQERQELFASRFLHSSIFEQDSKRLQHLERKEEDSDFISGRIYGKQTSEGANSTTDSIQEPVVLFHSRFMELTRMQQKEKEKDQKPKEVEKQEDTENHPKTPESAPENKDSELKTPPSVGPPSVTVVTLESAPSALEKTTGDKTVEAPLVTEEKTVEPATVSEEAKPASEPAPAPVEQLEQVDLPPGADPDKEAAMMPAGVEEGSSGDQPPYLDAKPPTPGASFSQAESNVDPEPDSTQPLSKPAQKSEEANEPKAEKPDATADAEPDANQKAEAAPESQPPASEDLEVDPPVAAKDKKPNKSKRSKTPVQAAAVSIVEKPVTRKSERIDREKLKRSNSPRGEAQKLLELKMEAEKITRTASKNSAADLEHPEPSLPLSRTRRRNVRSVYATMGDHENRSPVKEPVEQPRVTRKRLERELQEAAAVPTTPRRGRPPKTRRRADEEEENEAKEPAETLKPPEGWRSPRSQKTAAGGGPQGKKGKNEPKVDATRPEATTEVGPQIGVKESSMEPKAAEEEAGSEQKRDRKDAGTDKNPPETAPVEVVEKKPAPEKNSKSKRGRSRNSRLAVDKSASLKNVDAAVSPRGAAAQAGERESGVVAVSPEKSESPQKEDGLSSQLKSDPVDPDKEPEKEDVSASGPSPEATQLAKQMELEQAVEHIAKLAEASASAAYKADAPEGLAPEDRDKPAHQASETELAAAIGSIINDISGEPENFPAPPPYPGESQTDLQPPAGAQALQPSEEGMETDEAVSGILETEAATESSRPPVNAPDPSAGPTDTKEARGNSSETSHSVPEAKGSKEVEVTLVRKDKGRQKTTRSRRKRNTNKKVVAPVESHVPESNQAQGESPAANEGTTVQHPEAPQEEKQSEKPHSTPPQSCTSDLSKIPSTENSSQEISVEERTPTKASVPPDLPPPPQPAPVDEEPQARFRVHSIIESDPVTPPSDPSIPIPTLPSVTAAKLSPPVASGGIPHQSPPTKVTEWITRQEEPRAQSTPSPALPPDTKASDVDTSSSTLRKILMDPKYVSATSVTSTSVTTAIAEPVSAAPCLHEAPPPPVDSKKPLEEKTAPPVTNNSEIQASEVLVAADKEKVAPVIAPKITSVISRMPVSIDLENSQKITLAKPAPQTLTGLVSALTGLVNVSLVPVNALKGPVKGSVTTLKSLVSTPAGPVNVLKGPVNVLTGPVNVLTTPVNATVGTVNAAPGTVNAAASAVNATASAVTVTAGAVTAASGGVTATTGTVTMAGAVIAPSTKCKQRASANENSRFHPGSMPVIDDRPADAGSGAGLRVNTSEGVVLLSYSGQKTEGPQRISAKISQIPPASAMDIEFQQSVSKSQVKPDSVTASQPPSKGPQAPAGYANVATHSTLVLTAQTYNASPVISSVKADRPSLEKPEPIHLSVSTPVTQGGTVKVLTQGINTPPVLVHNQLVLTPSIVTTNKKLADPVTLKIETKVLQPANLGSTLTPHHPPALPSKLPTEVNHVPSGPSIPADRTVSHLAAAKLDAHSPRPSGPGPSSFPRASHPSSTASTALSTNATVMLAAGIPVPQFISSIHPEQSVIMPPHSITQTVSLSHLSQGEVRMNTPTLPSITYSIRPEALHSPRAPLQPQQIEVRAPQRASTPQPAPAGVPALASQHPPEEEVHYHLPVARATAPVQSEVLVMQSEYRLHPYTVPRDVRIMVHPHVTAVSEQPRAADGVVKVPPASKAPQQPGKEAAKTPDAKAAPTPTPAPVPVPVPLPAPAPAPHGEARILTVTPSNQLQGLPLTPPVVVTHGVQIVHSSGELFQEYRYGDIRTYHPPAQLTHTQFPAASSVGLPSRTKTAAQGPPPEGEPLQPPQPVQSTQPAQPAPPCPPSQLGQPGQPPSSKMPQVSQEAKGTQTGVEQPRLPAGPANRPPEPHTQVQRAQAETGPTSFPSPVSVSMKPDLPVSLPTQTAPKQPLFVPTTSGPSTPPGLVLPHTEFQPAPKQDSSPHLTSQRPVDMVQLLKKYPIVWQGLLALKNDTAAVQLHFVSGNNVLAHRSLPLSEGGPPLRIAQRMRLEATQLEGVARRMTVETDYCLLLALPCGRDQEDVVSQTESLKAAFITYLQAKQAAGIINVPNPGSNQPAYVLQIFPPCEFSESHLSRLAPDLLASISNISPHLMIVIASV
UniProt Q9BYN0: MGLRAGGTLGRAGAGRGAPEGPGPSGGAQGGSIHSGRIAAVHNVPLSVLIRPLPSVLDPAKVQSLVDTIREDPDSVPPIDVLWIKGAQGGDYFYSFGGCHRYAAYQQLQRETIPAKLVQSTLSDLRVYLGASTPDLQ
UniProt Q12772: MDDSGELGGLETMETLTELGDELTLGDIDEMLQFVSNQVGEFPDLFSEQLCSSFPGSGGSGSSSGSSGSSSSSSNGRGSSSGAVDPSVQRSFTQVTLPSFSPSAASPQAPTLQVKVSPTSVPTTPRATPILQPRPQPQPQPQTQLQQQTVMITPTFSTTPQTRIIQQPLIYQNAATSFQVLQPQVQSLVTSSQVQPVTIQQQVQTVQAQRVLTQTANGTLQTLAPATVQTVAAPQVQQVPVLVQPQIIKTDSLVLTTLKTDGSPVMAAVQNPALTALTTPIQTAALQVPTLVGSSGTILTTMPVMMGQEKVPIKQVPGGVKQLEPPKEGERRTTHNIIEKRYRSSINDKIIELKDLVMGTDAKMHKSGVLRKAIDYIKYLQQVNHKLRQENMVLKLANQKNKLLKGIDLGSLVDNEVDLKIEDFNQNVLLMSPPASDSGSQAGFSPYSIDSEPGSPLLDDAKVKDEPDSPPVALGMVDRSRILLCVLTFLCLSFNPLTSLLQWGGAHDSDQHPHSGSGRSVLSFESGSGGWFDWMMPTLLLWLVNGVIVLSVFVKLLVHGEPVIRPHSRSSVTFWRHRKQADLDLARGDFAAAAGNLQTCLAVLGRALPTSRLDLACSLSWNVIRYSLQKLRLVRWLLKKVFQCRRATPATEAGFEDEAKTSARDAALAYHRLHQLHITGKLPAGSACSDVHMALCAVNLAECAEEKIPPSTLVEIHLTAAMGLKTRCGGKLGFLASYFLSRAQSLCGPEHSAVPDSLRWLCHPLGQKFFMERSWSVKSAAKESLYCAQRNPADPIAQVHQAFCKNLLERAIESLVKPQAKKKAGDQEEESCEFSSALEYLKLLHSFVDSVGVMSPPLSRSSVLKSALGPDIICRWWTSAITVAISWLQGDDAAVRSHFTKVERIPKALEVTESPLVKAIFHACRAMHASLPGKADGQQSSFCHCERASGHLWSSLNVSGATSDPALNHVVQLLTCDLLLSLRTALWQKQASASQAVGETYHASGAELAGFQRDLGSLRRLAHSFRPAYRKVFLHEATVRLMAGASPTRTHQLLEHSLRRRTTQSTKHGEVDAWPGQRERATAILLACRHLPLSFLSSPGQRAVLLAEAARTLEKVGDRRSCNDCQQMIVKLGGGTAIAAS
UniProt P35325: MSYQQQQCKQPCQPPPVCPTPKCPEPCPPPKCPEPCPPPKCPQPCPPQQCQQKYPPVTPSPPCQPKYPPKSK
UniProt Q86XZ4: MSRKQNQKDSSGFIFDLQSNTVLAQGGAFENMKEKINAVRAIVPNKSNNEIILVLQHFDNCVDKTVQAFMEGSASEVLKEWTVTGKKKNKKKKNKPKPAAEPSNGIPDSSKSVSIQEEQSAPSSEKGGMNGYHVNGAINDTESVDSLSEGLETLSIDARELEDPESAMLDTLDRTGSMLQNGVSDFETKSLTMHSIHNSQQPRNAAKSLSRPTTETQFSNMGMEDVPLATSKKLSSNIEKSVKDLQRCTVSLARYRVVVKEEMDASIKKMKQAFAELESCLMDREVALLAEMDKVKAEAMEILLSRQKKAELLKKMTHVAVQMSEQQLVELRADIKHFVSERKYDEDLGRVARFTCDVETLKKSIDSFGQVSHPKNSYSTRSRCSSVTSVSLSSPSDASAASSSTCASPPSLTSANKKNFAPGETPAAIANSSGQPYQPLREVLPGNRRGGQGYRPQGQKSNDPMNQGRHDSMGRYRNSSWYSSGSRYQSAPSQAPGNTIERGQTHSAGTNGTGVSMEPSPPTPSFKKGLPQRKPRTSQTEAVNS
UniProt P22528: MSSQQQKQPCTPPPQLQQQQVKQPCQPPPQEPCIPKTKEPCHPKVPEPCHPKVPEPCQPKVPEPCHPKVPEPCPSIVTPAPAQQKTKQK
UniProt Q13242, whole entry, looked up: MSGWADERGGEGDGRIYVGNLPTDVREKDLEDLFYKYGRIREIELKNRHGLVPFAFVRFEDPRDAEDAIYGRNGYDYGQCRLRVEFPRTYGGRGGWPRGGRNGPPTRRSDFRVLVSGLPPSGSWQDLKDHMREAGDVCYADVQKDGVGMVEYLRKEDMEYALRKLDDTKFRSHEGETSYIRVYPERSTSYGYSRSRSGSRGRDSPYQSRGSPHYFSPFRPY
UniProt Q15532, whole entry, looked up: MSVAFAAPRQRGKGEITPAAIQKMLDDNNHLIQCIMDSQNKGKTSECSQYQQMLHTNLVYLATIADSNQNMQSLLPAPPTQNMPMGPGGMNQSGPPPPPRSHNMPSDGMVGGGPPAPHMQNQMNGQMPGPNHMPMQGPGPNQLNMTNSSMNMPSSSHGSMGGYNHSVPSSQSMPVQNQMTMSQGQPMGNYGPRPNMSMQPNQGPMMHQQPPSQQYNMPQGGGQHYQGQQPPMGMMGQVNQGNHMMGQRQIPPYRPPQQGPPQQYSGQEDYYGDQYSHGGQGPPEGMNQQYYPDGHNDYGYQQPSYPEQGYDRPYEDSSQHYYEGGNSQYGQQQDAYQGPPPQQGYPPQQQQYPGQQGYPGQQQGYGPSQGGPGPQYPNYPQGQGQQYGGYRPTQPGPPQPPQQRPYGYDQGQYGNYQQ
UniProt O76061, whole entry, looked up: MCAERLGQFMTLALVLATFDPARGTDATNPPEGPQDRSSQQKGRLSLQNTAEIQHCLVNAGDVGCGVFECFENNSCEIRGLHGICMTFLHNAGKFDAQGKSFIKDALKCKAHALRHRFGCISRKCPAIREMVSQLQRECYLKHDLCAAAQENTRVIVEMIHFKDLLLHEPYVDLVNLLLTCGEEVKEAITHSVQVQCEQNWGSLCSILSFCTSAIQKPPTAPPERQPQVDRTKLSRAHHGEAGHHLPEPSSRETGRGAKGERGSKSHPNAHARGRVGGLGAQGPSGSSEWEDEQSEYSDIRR

Compound in the first assay: COC(=O)N[C@@H](C)CNc1nccc(-c2cn(C(C)C)nc2-c2cc(Cl)cc(NS(C)(=O)=O)c2F)n1 [encorafenib]
Put plainly: log2 fold change, soluble protein after heating vs DMSO (PISA); higher = thermal stabilisation; K562 cells, 10 uM, 30 min; active = over 0.2 and 3.5 SD of the protein, either way, in both replicates (recomputed). The gist of the method: (§1)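 K562 cells at 2×10^6 cells/mL were treated with 10 μM compound for 30 min. Aliquots were heated for 3 min across 48°C-58°C, pooled, and extracted in PBS with 0.5% NP-40 at 4°C; soluble protein was the supernatant after 21,000xg for 90 min. Soluble protein was quantified by TMTpro 16plex LC-MS/MS with channel sums equalised, and reported as log2 fold change in thermal stability against DMSO controls, with values from duplicates.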
Consider SREBF1 isoform 4 (UniProt P36956), for which the log2 fold change is inactive: 0.044.

Take SPEN (UniProt Q96T58): the log2 fold change is inactive: -0.083.

In the case of SRXN1 (UniProt Q9BYN0), the log2 fold change is inactive: -0.008.

Consider SRRD (UniProt Q9UH36), for which the log2 fold change was inactive: -0.034.

In the case of SREBF2 (UniProt Q12772), the log2 fold change was inactive: -0.018.

For SPRR2B (UniProt P35325), the log2 fold change is inactive: 0.008.

In the case of SPIRE1 (UniProt Q08AE8), the log2 fold change was inactive: -0.105.

For the target STK24 (UniProt Q9Y6E0), the log2 fold change was inactive: 0.033.

With SRC isoform 2 (UniProt P12931), the log2 fold change was inactive: 0.082.

Consider SPATS2 (UniProt Q86XZ4), for which the log2 fold change is inactive: -0.07.

Consider SPRR1B (UniProt P22528), for which the log2 fold change is inactive: 0.038.

As to SRD5A3 (UniProt Q9H8P0), the log2 fold change is inactive: 0.156.

Regarding STARD10 (UniProt Q9Y365), the log2 fold change is inactive: -0.142.

As for SRSF9 (UniProt Q13242), the log2 fold change is inactive: 0.149.

On to SSBP2 (UniProt P81877), for which the log2 fold change was inactive: -0.051.

On to STIM2 isoform 2 (UniProt Q9P246), for which the log2 fold change was inactive: -0.008.

For SS18 (UniProt Q15532), the log2 fold change is inactive: 0.013.

Compound in another assay: COC(=O)[C@H](CCSC)NC(=O)C1=C(C=C(C=C1)NC[C@H](CS)N)C2=CC=CC=C2
The assay is described as above. In a few lines: as §1
In the case of SPEN (UniProt Q96T58), the log2 fold change was inactive: 0.052.

For SRXN1 (UniProt Q9BYN0), the log2 fold change is inactive: 0.022.

For SREBF2 (UniProt Q12772), the log2 fold change was inactive: 0.024.

For SPRR2B (UniProt P35325), the log2 fold change is inactive: 0.196.

With ST8SIA6 (UniProt P61647), the log2 fold change was inactive: 0.221.

For STC2 (UniProt O76061), the log2 fold change was inactive: 0.109.

SPIRE1 (UniProt Q08AE8): the log2 fold change was inactive: -0.074.

As for STK24 (UniProt Q9Y6E0), the log2 fold change was inactive: 0.031.

Consider SRC isoform 2 (UniProt P12931), for which the log2 fold change is inactive: 0.188.

With SPATS2 (UniProt Q86XZ4), the log2 fold change is inactive: 0.188.

For STAR (UniProt P49675), the log2 fold change is inactive: -0.086.

SPINT1 (UniProt O43278): the log2 fold change was inactive: 0.034.

For STARD10 (UniProt Q9Y365), the log2 fold change is inactive: -0.114.

As for SPTAN1 isoform 3 (UniProt Q13813), the log2 fold change is inactive: 0.259.

With SRSF9 (UniProt Q13242), the log2 fold change was inactive: -0.024.

Regarding SPRED1 (UniProt Q7Z699), the log2 fold change was inactive: -0.153.

As to STIM2 isoform 2 (UniProt Q9P246), the log2 fold change is inactive: -0.137.

Take SRCIN1 (UniProt Q9C0H9): the log2 fold change is inactive: -0.057.

On to STAB1 (UniProt Q9NY15), for which the log2 fold change is inactive: 0.003.

For the target SQOR (UniProt Q9Y6N5), the log2 fold change was inactive: 0.22.

In the case of SSBP4 (UniProt U3KPY3), the log2 fold change was inactive: -0.121.

In the case of SSB (UniProt E7ERC4), the log2 fold change was inactive: -0.092.

For SRGAP1 (UniProt Q7Z6B7), the log2 fold change is inactive: 0.032.

Regarding SS18 (UniProt Q15532), the log2 fold change is inactive: 0.051.

The record behind these values is the supplement of paper PMC10849652.
